These are yes or no findings as the source states them, for the method shown. Some binding calls cover weakened binding; strength is not graded here. For some of these results: Tags and fused reporters may be left off the sequences shown.
What was measured:
[1] = molecular target: T1, hPIGK-StrepII-GST (human) (UniProt Q92643); test: non-reducing SDS-PAGE with western blot; GPI-TA complex purified on StrepTactin Sepharose in DDM, DDM-CHS or digitonin; disulfide bond between PIGK and PIGT examined (Figure S7D)
T1 sequence: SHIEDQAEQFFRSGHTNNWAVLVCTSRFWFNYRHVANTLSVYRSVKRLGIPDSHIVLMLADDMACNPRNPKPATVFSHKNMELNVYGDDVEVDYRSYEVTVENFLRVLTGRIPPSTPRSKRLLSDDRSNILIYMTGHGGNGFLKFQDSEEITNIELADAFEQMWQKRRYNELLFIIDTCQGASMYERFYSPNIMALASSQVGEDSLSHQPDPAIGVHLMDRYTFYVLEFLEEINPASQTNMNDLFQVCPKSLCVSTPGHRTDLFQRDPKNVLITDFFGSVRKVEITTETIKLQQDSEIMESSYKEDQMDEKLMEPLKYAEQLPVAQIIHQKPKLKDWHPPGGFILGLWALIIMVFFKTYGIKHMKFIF

hPIGK-StrepII (human) [2] = molecular target: T2, hPIGK-StrepII (human) (UniProt Q92643); test: non-reducing SDS-PAGE with silver staining and western blot; GPI-TA complex purified by PIGK-StrepII in GDN; samples with (+DTT) or without (-DTT) dithiothreitol; anti-StrepII detects PIGK-StrepII
T2 sequence: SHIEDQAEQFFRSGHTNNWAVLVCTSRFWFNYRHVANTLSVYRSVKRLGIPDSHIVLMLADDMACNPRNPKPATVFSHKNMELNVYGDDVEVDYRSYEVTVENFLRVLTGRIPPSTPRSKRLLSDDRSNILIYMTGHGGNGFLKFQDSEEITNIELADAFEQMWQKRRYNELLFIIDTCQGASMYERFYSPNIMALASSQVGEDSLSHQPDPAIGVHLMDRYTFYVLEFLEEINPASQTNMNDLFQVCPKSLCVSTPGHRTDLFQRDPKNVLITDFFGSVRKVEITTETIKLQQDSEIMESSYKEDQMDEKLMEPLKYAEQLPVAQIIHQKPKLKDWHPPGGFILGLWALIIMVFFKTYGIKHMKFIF

hPIGK-StrepII (human) [3] = molecular target: T2, hPIGK-StrepII (human); test: non-reducing SDS-PAGE with western blot; samples of K562K cells stably expressing tagged PIGK, sample buffer with (+DTT) or without (-DTT) dithiothreitol; PIGK detected by anti-GST or anti-StrepII; shift to higher molecular weight without DTT
[4] = molecular target: T1, hPIGK-StrepII-GST (human); test: as above

Measured: binding

B1: PIGT (protein, UniProt Q969N2 22-578)
chain: LAEPPRDSLREELVITPLPSGDVAATFQFRTRWDSELQREGVSHYRLFPKALGQLISKYSLRELHLSFTQGFWRTRYWGPPFLQAPSGAELWVWFQDTVTDVDKSWKELSNVLSGIFCASLNFIDSTNTVTPTASFKPLGLANDTDHYFLRYAVLPREVVCTENLTPWKKLLPCSSKAGLSVLLKADRLFHTSYHSQAVHIRPVCRNARCTSISWELRQTLSVVFDAFITGQGKKDWSLFRMFSRTLTEPCPLASESRVYVDITTYNQDNETLEVHPPPTTTYQDVILGTRKTYAIYDLLDTAMINNSRNLNIQLKWKRPPENEAPPVPFLHAQRYVSGYGLQKGELSTLLYNTHPYRAFPVLLLDTVPWYLRLYVHTLTITSKGKENKPSYIHYQPAQDRLQPHLLEMLIQLPANSVTKVSIQFERALLKWTEYTPDPNHGFYVSPSVLSALVPSMVAAKPVDWEESPLFNSLFPVSDGSNYFVRLYTEPLLVNLPTPDFSMPYNVICLTCTVVAVCYGSFYNLLTRTFHIEEPRTGGLAKRLANLIRRARGVPPL
binds: [1] | hPIGK-StrepII (human) [2] | hPIGK-StrepII (human) [3] | [4]
